No constants are given. Whether binding was seen depends on the method and setting. For part of these data: Binding seen in cells or lysates may run through a third protein. Some results given as binding are weak or reduced against the parent protein; the word gives no strength. Where a sequence is shown, tags or fusion partners need not be part of it.

Experimental findings from paper PMC3094339 are described below.

Assay [1] deals with T1, BmrD-His6 (YheH with a hexahistidine tag) (Bacillus subtilis) (UniProt O07549).
T1 sequence: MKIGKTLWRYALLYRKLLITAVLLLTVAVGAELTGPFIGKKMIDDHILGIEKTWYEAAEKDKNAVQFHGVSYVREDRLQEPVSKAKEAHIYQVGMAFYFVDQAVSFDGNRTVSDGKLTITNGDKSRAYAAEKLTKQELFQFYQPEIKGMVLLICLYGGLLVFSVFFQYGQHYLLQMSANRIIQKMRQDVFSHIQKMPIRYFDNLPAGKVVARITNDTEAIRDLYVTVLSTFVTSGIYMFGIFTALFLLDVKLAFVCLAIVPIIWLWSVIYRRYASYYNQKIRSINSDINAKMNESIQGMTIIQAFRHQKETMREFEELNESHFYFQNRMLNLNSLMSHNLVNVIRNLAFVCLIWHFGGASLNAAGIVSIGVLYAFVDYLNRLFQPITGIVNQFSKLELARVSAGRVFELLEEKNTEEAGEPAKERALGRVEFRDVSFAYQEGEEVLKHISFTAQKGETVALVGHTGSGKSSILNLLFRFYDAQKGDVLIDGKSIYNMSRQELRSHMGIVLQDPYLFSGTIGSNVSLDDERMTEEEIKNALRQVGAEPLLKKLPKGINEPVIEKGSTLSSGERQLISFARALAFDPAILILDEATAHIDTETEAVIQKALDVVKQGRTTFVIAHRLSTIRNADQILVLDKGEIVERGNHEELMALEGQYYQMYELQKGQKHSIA
Briefly: pull-down; Ni2+ affinity chromatography by the His6 tag of BmrD only; membranes solubilised with 1% FC12 or 1% DDM; elution with 250 mM imidazole.

Assay [2] addresses T1, BmrD-His6 (YheH with a hexahistidine tag) (Bacillus subtilis). Nature of the assay: AUC; sedimentation velocity, 20°C, 42000 rpm, in DDM; 0.85 mg/ml, diluted 4 times, or 0.11 mg/ml after SEC; both purified.
For assay [3] the target is unchanged. Nature of the assay: SEC; Superdex 200 10/300 GL; 50 mM Tris-HCl pH 8, 150 mM NaCl, 10% glycerol, 5 mM beta-mercaptoethanol, 0.05% (w/v) DDM; protein purified by nickel affinity in DDM; both purified. In general terms: In gel filtration, larger molecules generally elute earlier.

B1: BmrC (YheI), untagged subunit (protein, UniProt O07550 1-585)
chain: MFSVLKKLGWFFKAYWLRYTIAIVLLLAVNVIEMFPPKLLGNAIDDMKAGAFTAEGLLFYIGIFFVLTAAVYIMSYFWMHQLFGGANLMEKILRTKLMGHLLTMSPPFYEKNRTGDLMARGTNDLQAVSLTTGFGILTLVDSTMFMMTIFLTMGFLISWKLTFAAIIPLPVMAIAISLYGSKIHERFTEAQNAFGALNDRVLESVSGVRVIRAYVQETNDVRRFNEMTADVYQKNMKVAFIDSLFEPTVKLLVGASYLIGLGYGAFLVFRNELTLGELVSFNVYLGMMIWPMFAIGELINVMQRGNASLDRVNETLSYETDVTDPKQPADLKEPGDIVFSHVSFTYPSSTSDNLQDISFTVRKGQTVGIAGKTGSGKTTIIKQLLRQYPPGEGSITFSGVPIQQIPLDRLRGWIGYVPQDHLLFSRTVKENILYGKQDATDKEVQQAIAEAHFEKDLHMLPSGLETMVGEKGVALSGGQKQRISIARALMANPEILILDDSLSAVDAKTEAAIIKNIRENRKGKTTFILTHRLSAVEHADLILVMDGGVIAERGTHQELLANNGWYREQYERQQLFTAEEGGAGA
Consider B1, for which, in assay [1], the binding entry is “binds”.

B2: His6-BmrC (YheI with an N-terminal hexahistidine tag) (protein, UniProt O07550 1-585)
chain: MFSVLKKLGWFFKAYWLRYTIAIVLLLAVNVIEMFPPKLLGNAIDDMKAGAFTAEGLLFYIGIFFVLTAAVYIMSYFWMHQLFGGANLMEKILRTKLMGHLLTMSPPFYEKNRTGDLMARGTNDLQAVSLTTGFGILTLVDSTMFMMTIFLTMGFLISWKLTFAAIIPLPVMAIAISLYGSKIHERFTEAQNAFGALNDRVLESVSGVRVIRAYVQETNDVRRFNEMTADVYQKNMKVAFIDSLFEPTVKLLVGASYLIGLGYGAFLVFRNELTLGELVSFNVYLGMMIWPMFAIGELINVMQRGNASLDRVNETLSYETDVTDPKQPADLKEPGDIVFSHVSFTYPSSTSDNLQDISFTVRKGQTVGIAGKTGSGKTTIIKQLLRQYPPGEGSITFSGVPIQQIPLDRLRGWIGYVPQDHLLFSRTVKENILYGKQDATDKEVQQAIAEAHFEKDLHMLPSGLETMVGEKGVALSGGQKQRISIARALMANPEILILDDSLSAVDAKTEAAIIKNIRENRKGKTTFILTHRLSAVEHADLILVMDGGVIAERGTHQELLANNGWYREQYERQQLFTAEEGGAGA
Consider B2, for which the binding result in assay [2] and in assay [3] was “binds” in each case.
